Measurements as given in paper PMC9663550.
These are yes or no findings as the source states them, for the method shown. Binding seen in cells or lysates may run through a third protein. Some binding calls cover weakened binding; strength is not graded here. Sequences can lack the tags named with a protein.

Protein sequences, listed by entry. Tags and fused reporters are not part of them. Lines headed by an entry give the natural chain unless they say otherwise; changes in a name come on top. Chains listed by the source or under a name are the forms on record and can include a tag or linker.
UniProt Q99623: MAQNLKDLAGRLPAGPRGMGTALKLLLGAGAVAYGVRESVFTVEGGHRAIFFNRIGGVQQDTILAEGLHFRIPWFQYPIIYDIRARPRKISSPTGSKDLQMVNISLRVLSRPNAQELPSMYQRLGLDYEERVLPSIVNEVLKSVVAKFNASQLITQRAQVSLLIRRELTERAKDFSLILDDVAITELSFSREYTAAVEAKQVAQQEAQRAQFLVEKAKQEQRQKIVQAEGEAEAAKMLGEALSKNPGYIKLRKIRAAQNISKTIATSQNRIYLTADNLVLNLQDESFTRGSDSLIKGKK
exo-PHB2 Thr288Ala (MYC-tagged) (Q99623, form named): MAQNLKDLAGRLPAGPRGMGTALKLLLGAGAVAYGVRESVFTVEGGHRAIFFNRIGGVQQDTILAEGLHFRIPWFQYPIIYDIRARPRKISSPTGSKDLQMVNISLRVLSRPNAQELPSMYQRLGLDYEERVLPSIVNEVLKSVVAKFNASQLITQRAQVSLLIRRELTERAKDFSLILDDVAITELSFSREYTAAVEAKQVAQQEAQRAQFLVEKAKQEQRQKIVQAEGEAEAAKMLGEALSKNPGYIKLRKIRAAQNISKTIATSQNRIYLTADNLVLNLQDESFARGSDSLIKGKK
exo-PHB2 Ser291Ala (MYC-tagged) (Q99623, form named): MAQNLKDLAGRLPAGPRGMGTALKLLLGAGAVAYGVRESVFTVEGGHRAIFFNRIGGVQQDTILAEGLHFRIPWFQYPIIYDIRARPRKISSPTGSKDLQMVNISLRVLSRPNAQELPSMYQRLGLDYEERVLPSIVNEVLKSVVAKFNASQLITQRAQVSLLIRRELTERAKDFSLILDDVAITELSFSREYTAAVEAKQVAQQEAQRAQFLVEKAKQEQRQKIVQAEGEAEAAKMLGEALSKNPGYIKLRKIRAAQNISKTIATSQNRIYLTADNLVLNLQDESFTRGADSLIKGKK

What was measured:
Experiment in all cases: co-IP; 50 ng recombinant IGFBP6-His added to 1 mg HCC cell lysate; PHB2-MYC immunoprecipitated, IGFBP6 detected by western blot; NET buffer, protein-A Sepharose, 4 °C over 12 h; only the binder purified
[1] = target: exo-PHB2 Thr288Ala (MYC-tagged) (UniProt Q99623)
[2] = target: exo-PHB2 Ser291Ala (MYC-tagged) (UniProt Q99623)
[3] = target: exo-PHB2 (MYC-tagged PHB2, wild-type sequence) (UniProt Q99623)

Measured: binding

B1: recombinant IGFBP6 with His-tag (protein, UniProt P24592 28-240)
chain: RCPGCGQGVQAGCPGGCVEEEDGGSPAEGCAEAEGCLRREGQECGVYTPNCAPGLQCHPPKDDEAPLRALLLGRGRCLPARAPAVAEENPKESKPQAGTARPQDVNRRDQQRNPGTSTTPSQPNSAGVQDTEMGPCRRHLDSVLQQLQTEVYRGAQTLYVPNCDHRGFYRKRQCRSSQGQRRGPCWCVDRMGKSLPGSPDGNGSSSCPTGSSG
binds: all assays above
